According to patent US20220048999A1 (Genmab, published 2022):
Results are given in words; binding and its absence hold for the method and conditions named.

Experiments:
[1] = target: T1, human B7H4, full length, on cells (human, UniProt Q7Z7D3 25-282); assay: flow cytometry, MDA-MB-468 and HCC1954 cells
T1 construct: On transiently transfected HEK cells or on B7H4-expressing human tumor cell lines; also called VTCN1
T1 sequence: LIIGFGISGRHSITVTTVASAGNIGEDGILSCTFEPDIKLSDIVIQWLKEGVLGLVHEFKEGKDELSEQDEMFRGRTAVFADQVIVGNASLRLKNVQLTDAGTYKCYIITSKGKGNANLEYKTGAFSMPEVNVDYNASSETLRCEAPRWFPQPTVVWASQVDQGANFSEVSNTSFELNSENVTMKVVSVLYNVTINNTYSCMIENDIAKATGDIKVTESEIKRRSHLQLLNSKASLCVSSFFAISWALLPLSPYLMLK

[2] = target: T1, human B7H4, full length, on cells; assay: flow cytometry on HCC1954 cells (lower left and lower right panels), 0.014-30 µg/ml, MFI PE
[3] = target: T1, human B7H4, full length, on cells; assay: flow cytometry, HEK cells transiently transfected with human B7H4 (panel B7H4), 0.014-30 µg/ml, MFI PE
[4] = target: B7H3-IgV/B7H4-IgC; assay: flow cytometry, HEK cells transiently transfected with B7H3-IgV/B7H4-IgC (panel B7H3-IgV/B7H4-IgC), 0.014-30 µg/ml, MFI PE
[5] = target: T2, B7H4-IgV/B7H3-IgC; assay: flow cytometry, HEK cells transiently transfected with B7H4-IgV/B7H3-IgC (panel B7H4-IgV/B7H3-IgC), 0.014-30 µg/ml, MFI PE
T2 sequence (full length chimeric protein on cells): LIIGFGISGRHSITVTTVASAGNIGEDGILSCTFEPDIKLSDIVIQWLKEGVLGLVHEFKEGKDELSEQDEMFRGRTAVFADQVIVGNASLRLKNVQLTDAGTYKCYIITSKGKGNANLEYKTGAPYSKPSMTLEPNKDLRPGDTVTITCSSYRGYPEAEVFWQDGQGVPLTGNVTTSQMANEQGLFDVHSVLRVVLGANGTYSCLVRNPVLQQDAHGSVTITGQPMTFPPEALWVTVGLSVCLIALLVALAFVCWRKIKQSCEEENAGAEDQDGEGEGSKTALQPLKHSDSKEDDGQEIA

[6] = target: T1, human B7H4, full length, on cells; assay: flow cytometry, MCF-7 and MDA-MB-468 cells
[7] = target: T1, human B7H4, full length, on cells; assay: flow cytometry on MCF-7 cells (B7H4-expressing), MFI PE

Binder | binding [1] | binding [2] | binding [3] | binding [4] | binding [5] | binding [6] | binding [7]
IgG1-b12-K409R (antibody, V domains shown) VH: QVQLVQSGAEVKKPGASVKVSCQASGYRFSNFVIHWVRQAPGQRFEWMGWINPYNGNKEFSAKFQDRVTFTADTSANTAYMELRSLRSADTAVYYCARVGPYSWDDSPQDNYYMDVWGKGTTVIVSS VL: EIVLTQSPGTLSLSPGERATFSCRSSHSIRSRRVAWYQHKPGQAPRLVIHGVSNRASGISDRFSGSGSGTDFTLTITRVEPEDFALYYCQVYGASSYTFGQGTKLERKR | no binding | no binding (tested: 30 µg/ml) | no binding (tested: 30 µg/ml) | no binding (tested: 30 µg/ml) | no binding (tested: 30 µg/ml) | – | –
IgG1-b12 (antibody, V domains shown) VH: QVQLVQSGAEVKKPGASVKVSCQASGYRFSNFVIHWVRQAPGQRFEWMGWINPYNGNKEFSAKFQDRVTFTADTSANTAYMELRSLRSADTAVYYCARVGPYSWDDSPQDNYYMDVWGKGTTVIVSS VL: EIVLTQSPGTLSLSPGERATFSCRSSHSIRSRRVAWYQHKPGQAPRLVIHGVSNRASGISDRFSGSGSGTDFTLTITRVEPEDFALYYCQVYGASSYTFGQGTKLERK | – | – | – | – | – | no binding | no binding (tested: 30 µg/ml)
